Literature values, collected in patent US20020132846A1, “Use of gamma substituted gamma-butyrolactones to increase levels of their corresponding substituted gamma-hydroxybutyrate derivatives in humans” (priority 2001, published 2002).
For at least one compound, name, drawing or mass did not settle the structure.

Settings: peroral administration

O=C(O)CCCO [gamma-hydroxybutyrate]
enhancement of markers of well being: almost immediately enhance markers of well being | increase of growth hormone levels (reference (4)): three fold | induction of sedation (reference (5)): reliably induce a sedation indistinguishable from normal human sleep
